In patent US20200239888:
For at least one entry, the source does not settle the construct or the ends of the probe. For part of these data: At least one result comes from cells or an extract, where the contact may be indirect. For part of these data: Protein sequences can lack the tags named with them.

Experiments:
PSF / p54nrb heterodimer = assay: competition with a labelled probe; settings: full PS, all C 5mC, disruption of PSF-p54nrb BRET in HeLa lysate, reported as KD (50% dissociation), protein in a lysate after overexpression
FUS(213-375)-NLUC-HA = biological target: T1, FUS(213-375)-NLUC-HA (UniProt P35637); assay: binding assay; settings: full PS, nanoBRET, protein translated in vitro, protein details: C-terminal NLUC-HA, PURExpress, bead-bound, label: 5'-AF594
T1 sequence (looked up): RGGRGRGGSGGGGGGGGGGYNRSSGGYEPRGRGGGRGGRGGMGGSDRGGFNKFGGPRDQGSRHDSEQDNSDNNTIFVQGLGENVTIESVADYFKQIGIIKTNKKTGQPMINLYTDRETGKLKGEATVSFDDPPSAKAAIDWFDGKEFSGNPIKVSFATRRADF

FUS(284-375)-NLUC-HA = biological target: T2, FUS(284-375)-NLUC-HA (UniProt P35637); assay: binding assay; settings: full PS, nanoBRET, protein translated in vitro, protein details: C-terminal NLUC-HA, PURExpress, bead-bound, label: 5'-AF594
T2 sequence (looked up): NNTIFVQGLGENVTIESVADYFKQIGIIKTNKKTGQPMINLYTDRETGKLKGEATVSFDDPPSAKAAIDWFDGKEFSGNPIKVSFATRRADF

FUS(1-375)-NLUC-HA = biological target: T3, FUS(1-375)-NLUC-HA (UniProt P35637); assay: binding assay; settings: full PS, nanoBRET, protein translated in vitro, protein details: C-terminal NLUC-HA, PURExpress, bead-bound, label: 5'-AF594
T3 sequence (looked up): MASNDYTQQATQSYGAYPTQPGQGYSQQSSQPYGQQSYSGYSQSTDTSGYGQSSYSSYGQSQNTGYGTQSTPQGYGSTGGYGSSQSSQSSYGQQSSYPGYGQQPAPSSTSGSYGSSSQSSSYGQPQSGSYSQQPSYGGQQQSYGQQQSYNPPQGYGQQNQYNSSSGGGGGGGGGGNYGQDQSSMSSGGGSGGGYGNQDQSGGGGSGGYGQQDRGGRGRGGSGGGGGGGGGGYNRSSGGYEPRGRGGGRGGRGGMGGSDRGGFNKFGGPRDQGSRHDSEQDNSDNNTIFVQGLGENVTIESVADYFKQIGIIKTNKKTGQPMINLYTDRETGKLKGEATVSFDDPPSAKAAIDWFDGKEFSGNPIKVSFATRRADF

[1] = biological target: T4, FUS(1-421)-FUS(455-526)[P525L]-NLUC-FLAG deletion 422-454, P525L (UniProt P35637); assay: binding assay; settings: nanoBRET, protein translated in vitro, protein details: C-terminal NLUC-FLAG, PURExpress, bead-bound, label: 5'-AF594
T4 sequence (looked up): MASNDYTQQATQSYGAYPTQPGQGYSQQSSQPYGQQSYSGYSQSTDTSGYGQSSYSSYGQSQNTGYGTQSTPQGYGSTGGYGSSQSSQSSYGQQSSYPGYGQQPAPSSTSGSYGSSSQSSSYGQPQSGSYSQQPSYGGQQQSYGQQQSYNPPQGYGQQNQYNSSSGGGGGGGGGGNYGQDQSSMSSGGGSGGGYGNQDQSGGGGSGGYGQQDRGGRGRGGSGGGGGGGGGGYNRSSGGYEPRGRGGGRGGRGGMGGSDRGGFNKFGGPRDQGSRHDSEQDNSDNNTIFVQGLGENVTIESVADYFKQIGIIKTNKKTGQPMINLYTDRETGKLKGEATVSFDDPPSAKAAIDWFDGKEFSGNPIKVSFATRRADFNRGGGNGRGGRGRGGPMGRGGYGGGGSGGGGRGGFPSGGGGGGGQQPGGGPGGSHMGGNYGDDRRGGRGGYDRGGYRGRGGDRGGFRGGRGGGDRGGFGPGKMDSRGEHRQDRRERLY

[2] = biological target: T5, FUS(1-526)[P525L]-NLUC-HA (UniProt P35637); assay: binding assay; settings: full PS, nanoBRET, protein translated in vitro, protein details: C-terminal NLUC-HA, PURExpress, bead-bound, label: 5'-AF594
T5 sequence (looked up): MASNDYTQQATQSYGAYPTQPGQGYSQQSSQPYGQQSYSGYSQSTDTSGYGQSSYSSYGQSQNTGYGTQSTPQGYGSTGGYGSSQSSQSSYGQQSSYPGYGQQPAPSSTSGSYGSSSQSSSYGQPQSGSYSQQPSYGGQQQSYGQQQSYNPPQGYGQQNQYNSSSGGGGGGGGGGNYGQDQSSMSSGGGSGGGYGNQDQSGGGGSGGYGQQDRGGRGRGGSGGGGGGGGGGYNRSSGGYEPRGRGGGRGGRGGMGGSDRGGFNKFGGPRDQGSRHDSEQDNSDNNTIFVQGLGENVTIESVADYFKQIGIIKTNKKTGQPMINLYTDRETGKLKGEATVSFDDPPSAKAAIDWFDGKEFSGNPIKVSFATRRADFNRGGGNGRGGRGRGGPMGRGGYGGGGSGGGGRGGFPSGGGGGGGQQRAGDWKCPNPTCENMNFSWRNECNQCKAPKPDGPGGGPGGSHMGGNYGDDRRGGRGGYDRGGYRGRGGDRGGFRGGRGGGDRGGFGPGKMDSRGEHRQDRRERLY

[3] = biological target: T6, FUS(375-526)[P525L]-NLUC-HA (UniProt P35637); assay: binding assay; settings: full PS, nanoBRET, protein translated in vitro, protein details: C-terminal NLUC-HA, PURExpress, bead-bound, label: 5'-AF594
T6 sequence (looked up): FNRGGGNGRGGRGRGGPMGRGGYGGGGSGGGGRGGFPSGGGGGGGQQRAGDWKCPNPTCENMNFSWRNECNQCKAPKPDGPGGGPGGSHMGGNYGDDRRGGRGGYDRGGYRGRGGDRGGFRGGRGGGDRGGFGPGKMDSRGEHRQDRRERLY

[4] = biological target: T7, FUS(1-526)[P525L]-NLUC-FLAG (UniProt P35637); assay: binding assay; settings: full PS, nanoBRET, protein translated in vitro, protein details: C-terminal NLUC-FLAG, PURExpress, bead-bound, label: 5'-AF594
T7 sequence (looked up): T5 sequence (looked up)

FUS(375-421)-NLUC-HA = biological target: T8, FUS(375-421)-NLUC-HA (UniProt P35637); assay: binding assay; settings: full PS, nanoBRET, protein translated in vitro, protein details: C-terminal NLUC-HA, PURExpress, bead-bound, label: 5'-AF594
T8 sequence (looked up): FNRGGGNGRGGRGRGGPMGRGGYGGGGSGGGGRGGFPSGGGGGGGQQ

[5] = biological target: T9, HA-NES-β23-NLUC-FUS(375-526)[P525L] (UniProt P35637); assay: binding assay; settings: full PS, nanoBRET, protein translated in vitro, protein details: HA-NES-β23-NLUC fusion at N-terminus, label: 5'-AF594
T9 sequence (looked up): T6 sequence (looked up)

FUS(1-283)-NLUC-HA = biological target: T10, FUS(1-283)-NLUC-HA (UniProt P35637); assay: binding assay; settings: full PS, nanoBRET, protein translated in vitro, protein details: C-terminal NLUC-HA, PURExpress, bead-bound, label: 5'-AF594
T10 sequence (looked up): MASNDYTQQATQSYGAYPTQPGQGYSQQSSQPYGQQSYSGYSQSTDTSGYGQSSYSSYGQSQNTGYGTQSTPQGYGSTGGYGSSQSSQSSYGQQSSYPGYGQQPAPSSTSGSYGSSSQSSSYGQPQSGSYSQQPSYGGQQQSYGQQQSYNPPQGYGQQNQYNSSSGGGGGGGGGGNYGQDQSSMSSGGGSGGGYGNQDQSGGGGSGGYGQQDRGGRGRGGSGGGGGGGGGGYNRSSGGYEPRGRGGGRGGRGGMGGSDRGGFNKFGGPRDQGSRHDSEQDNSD

[6] = biological target: T11, NLUC-FUS(1-526)[P525L]-HA (UniProt P35637); assay: binding assay; settings: full PS, nanoBRET, protein translated in vitro, label: 5'-AF594
T11 sequence (looked up): T5 sequence (looked up)

[7] = biological target: T12, FUS(455-526)[P525L]-NLUC-HA (UniProt P35637); assay: binding assay; settings: full PS, nanoBRET, protein translated in vitro, protein details: C-terminal NLUC-HA, PURExpress, bead-bound, label: 5'-AF594
T12 sequence (looked up): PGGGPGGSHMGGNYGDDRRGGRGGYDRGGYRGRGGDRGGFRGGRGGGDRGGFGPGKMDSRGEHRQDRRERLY

FUS(242-375)-NLUC-HA = biological target: T13, FUS(242-375)-NLUC-HA (UniProt P35637); assay: binding assay; settings: full PS, nanoBRET, protein translated in vitro, protein details: C-terminal NLUC-HA, PURExpress, bead-bound, label: 5'-AF594
T13 sequence (looked up): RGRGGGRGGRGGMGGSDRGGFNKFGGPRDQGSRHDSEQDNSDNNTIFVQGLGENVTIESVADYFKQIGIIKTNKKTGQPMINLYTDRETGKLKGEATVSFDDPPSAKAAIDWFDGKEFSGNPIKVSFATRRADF

[8] = 2'-MOE at 1-5 and 16-20, DNA at 6-15, all C 5mC
[9] = cEt at 1-5 and 16-20, DNA at 6-15, all C 5mC
[10] = 2'-F at 1-5 and 16-20, DNA at 6-15, 5mC at C8, C9, C11

CTGCTAGCCTCTGGATTTGA [116847 (2'-MOE 5-10-5 gapmer)]
IC50 (PSF / p54nrb heterodimer; 2'-MOE at 1-5 and 16-20, DNA at 6-15): 2.46 nM

CTGCTAGCCTCTGGATTTGA [582801 (cEt 5-10-5 gapmer)]
IC50 (PSF / p54nrb heterodimer; cEt at 1-5 and 16-20, DNA at 6-15): 5.12 nM

CTGCTAGCCTCTGGATTTGA [766633 (2'-MOE 5-10-5 gapmer)]
Kd (FUS(213-375)-NLUC-HA; [8]): 10 nM
Kd (FUS(284-375)-NLUC-HA; 2'-MOE at 1-5 and 16-20, DNA at 6-15, all C 5mC, repeat >1000 nM in Table 15): > 1000 nM
Kd (FUS(1-375)-NLUC-HA; 2'-MOE at 1-5 and 16-20, DNA at 6-15, all C 5mC, repeat 11.8 nM in Table 15): 16.7 nM
Kd ([1]; 2'-MOE at 1-5 and 16-20, DNA at 6-15, full PS, all C 5mC): 4.2 nM
Kd [2, 8]: 16.4 nM
Kd ([3]; 2'-MOE at 1-5 and 16-20, DNA at 6-15, all C 5mC, repeat 23.7 nM in Table 16 (printed P252L)): 36.8 nM
Kd [4, 8]: 1.2 nM
Kd (FUS(375-421)-NLUC-HA; [8]): 291 nM
Kd [5, 8]: 164 nM
Kd (FUS(1-283)-NLUC-HA; 2'-MOE at 1-5 and 16-20, DNA at 6-15, all C 5mC, 100 mM KOAc, 20 mM Tris pH 8.0, RT): 44.7 nM
Kd [6, 8]: 16.6 nM
Kd [7, 8]: 39.4 nM
Kd (FUS(242-375)-NLUC-HA; [8]): 103 nM

CTGCTAGCCTCTGGATTTGA [766635 (cEt 5-10-5 gapmer)]
Kd (FUS(213-375)-NLUC-HA; [9]): 9 nM
Kd (FUS(284-375)-NLUC-HA; cEt at 1-5 and 16-20, DNA at 6-15, all C 5mC, repeat >1000 nM in Table 15): > 1000 nM
Kd (FUS(1-375)-NLUC-HA; cEt at 1-5 and 16-20, DNA at 6-15, all C 5mC, repeat 11.3 nM in Table 15): 12.1 nM
Kd ([1]; cEt at 1-5 and 16-20, DNA at 6-15, full PS, all C 5mC): 6.8 nM
Kd [2, 9]: 17.2 nM
Kd ([3]; cEt at 1-5 and 16-20, DNA at 6-15, all C 5mC, repeat 19 nM in Table 16 (printed P252L)): 30.7 nM
Kd [4, 9]: 3 nM
Kd (FUS(375-421)-NLUC-HA; [9]): 203 nM
Kd [5, 9]: 58.4 nM
Kd (FUS(1-283)-NLUC-HA; [9]): 35.2 nM
Kd [6, 9]: 12.4 nM
Kd [7, 9]: 34.3 nM
Kd (FUS(242-375)-NLUC-HA; [9]): 117 nM

CUGCUAGCCTCTGGAUUUGA [766637 (2'-F 5-10-5 gapmer)]
Kd (FUS(213-375)-NLUC-HA; [10]): 0.9 nM
Kd (FUS(284-375)-NLUC-HA; 2'-F at 1-5 and 16-20, DNA at 6-15, 5mC at C8, C9, C11, repeat 424.1 nM in Table 15): 340 nM
Kd (FUS(1-375)-NLUC-HA; 2'-F at 1-5 and 16-20, DNA at 6-15, 5mC at C8, C9, C11, repeat 0.8 nM in Table 15): 1.4 nM
Kd ([1]; 2'-F at 1-5 and 16-20, DNA at 6-15, full PS, 5mC at C8, C9, C11): 1.1 nM
Kd [2, 10]: 2.2 nM
Kd ([3]; 2'-F at 1-5 and 16-20, DNA at 6-15, 5mC at C8, C9, C11, repeat 2.9 nM in Table 16 (printed P252L)): 4.4 nM
Kd [4, 10]: 0.4 nM
Kd (FUS(375-421)-NLUC-HA; [10]): 40.8 nM
Kd [5, 10]: 13.8 nM
Kd (FUS(1-283)-NLUC-HA; [10]): 7.1 nM
Kd [6, 10]: 1.9 nM
Kd [7, 10]: 6.6 nM
Kd (FUS(242-375)-NLUC-HA; [10]): 11 nM

CUGCUAGCCUCUGGAUUUGA [JB39 (RNA, phosphodiester)]
Kd [1]: 206 nM
